Experimental findings from article PMC4818453 are described below.

By UniProt entry, the sequences of proteins in these tests, tags left out. Residues count along the entry.
UniProt P10719, residues 47-529: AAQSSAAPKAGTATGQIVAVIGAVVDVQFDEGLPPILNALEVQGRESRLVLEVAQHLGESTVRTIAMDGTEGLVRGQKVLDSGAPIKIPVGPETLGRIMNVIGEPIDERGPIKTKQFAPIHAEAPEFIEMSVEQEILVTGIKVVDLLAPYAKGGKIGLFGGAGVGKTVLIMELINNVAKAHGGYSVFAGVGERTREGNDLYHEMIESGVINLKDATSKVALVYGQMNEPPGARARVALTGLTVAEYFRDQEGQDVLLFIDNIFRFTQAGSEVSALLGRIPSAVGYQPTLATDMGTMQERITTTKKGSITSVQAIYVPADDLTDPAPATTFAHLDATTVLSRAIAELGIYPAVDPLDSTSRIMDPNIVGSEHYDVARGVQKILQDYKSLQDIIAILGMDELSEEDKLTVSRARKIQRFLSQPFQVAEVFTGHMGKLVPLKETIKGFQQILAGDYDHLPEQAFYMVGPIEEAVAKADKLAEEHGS

This assay deals with T1, full-length GST-CASK (rat) (UniProt Q62915).
T1 sequence: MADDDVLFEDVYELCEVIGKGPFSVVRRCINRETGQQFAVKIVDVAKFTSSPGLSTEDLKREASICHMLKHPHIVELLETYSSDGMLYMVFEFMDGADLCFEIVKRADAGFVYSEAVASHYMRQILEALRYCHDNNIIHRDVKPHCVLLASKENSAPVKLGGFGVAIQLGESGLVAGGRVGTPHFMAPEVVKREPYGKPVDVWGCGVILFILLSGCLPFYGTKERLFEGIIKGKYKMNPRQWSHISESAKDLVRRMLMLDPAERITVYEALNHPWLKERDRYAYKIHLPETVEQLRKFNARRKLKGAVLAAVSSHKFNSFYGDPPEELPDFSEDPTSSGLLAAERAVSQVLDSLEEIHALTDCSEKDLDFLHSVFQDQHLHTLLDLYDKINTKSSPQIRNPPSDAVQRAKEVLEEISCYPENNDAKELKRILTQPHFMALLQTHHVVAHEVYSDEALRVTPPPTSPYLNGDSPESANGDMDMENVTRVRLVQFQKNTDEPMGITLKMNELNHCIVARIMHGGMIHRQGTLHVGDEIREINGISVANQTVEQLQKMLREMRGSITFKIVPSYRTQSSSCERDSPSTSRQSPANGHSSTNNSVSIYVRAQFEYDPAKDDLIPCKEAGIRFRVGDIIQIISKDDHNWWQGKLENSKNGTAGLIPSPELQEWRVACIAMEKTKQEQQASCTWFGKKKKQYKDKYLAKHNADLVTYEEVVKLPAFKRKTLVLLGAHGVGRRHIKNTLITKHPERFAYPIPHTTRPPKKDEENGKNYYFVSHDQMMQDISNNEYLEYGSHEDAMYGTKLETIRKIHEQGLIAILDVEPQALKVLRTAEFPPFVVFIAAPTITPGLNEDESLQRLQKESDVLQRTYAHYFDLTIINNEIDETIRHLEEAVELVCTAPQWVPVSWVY
Nature of the assay: pull-down; full-length GST-CASK or GST immobilised on glutathione resin; rat brain homogenate; bound proteins detected by immunoblot; only the target purified. (Immunoblotting shows a protein as a band on a membrane.)

No constants are given. Whether binding was seen depends on the method and setting. Binding seen in cells or lysates may run through a third protein. Some entries that bind do so weakly or less than the wild type. Sequences can lack the tags named with a protein.

With “mitochondrial ATP synthase β subunit (from UniProt P10719 47-529)”, the binding entry is on record as “binds”.
